Assay results: publication PMC6220269, “Dynamic ubiquitylation of Sox2 regulates proteostasis and governs neural progenitor cell differentiation” (Nature Communications, 2018)
These are yes or no findings as the source states them, for the method shown. In cells and extracts the contact can be indirect. Some binding calls cover weakened binding; strength is not graded here.

Sequences of proteins named here, by UniProt entry; tags and fusion partners are left off.
UniProt Q6GQQ9: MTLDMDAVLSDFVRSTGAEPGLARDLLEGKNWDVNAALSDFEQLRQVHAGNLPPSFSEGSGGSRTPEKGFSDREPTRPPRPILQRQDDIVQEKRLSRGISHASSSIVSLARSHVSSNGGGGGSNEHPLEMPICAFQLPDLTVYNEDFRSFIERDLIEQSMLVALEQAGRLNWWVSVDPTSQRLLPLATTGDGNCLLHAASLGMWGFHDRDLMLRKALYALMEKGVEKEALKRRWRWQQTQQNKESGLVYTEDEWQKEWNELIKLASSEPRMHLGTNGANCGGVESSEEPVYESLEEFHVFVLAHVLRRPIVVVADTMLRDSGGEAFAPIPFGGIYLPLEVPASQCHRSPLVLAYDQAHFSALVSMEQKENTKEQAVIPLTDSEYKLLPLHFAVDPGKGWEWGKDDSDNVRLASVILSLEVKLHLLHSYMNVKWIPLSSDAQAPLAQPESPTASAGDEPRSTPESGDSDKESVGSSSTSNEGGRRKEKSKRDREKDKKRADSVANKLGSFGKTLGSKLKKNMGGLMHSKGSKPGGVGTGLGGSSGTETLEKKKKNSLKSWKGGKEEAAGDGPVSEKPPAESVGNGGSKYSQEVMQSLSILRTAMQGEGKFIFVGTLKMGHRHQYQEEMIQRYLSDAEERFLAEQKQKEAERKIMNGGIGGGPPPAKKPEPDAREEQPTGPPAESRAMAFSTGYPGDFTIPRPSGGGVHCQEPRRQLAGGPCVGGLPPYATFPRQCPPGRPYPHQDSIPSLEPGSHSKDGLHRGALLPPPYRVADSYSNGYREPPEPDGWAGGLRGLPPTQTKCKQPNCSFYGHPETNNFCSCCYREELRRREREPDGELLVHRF
UniProt P48431: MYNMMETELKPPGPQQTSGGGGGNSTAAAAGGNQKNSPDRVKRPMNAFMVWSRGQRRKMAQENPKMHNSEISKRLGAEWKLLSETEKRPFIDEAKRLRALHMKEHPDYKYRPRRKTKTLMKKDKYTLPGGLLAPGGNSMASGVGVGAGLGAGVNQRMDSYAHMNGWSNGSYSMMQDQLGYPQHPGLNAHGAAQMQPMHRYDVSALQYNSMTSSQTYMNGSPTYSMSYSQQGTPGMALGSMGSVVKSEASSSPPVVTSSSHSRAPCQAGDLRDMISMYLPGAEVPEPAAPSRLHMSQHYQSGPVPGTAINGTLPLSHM

Columns and labels:
[1] = biological target: OTUD7B, ectopic (Flag-OTUD7B) (human) (UniProt Q6GQQ9); experiment: co-IP; lysates of transfected cells (HEK293T where stated); precipitation with anti-Myc, anti-Flag or His-tag affinity resin, then blot; HEPES lysis buffer (20 mM HEPES pH 7.2, 50 mM NaCl, 0.5% Triton X-100); in Fig. 3a, b also with control, CUL4A or DET1 siRNA
[2] = biological target: Sox2 (Sex determining region Y-box 2), endogenous in NPCs (human (endogenous in NPCs)) (UniProt P48431); experiment: co-IP; lysates of human NPCs; precipitation with control IgG, anti-Sox2 or anti-OTUD7B antibody and protein A/G agarose at 4 °C, then blot; HEPES lysis buffer (20 mM HEPES pH 7.2, 50 mM NaCl, 0.5% Triton X-100)

## Myc-Sox2 (from UniProt P48431 1-317)
[1]
  binding: binds

## OTUD7B (OTU domain-containing protein 7B), endogenous in NPCs (from UniProt Q6GQQ9 1-843) (enzyme)
[2]
  binding: binds
